The values that follow come from PubChem BioAssay AID493014 (National Center for Advancing Translational Sciences (NCATS), 2011).

This test is described as follows: qHTS Assay to Find Inhibitors of Chronic Active B-Cell Receptor Signaling. Conditions: ABC-DLBCL IkBa-CBG/CBR reporter, luminescence ratio (green luciferase fused to IkBa over red control in TMD8 lymphoma cells), 4 h. An outline of the steps: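 Concentration-response series (up to 46 uM) were applied to TMD8 dual-reporter cells for 4 h at 37C with doxycycline. Green/red ratio, after filter-overlap correction, defined %Activity; red signal alone was normalised to basal cells and zero luminescence.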

Setting [1] is: measured here: CBR red luminescence, cell number.

The structures appear in SMILES notation. “And” between values parts separate entries of the source, which are not always exact repeats. Identical values can stand only once. The list shows a part of the results. Shown are side measurements of this screen, not its main read-out; they come without a call. Compounds called inactive in the main read-out are mostly missing here. Potencies come from curve fits of mixed quality, noted in brackets.

In the case of `CCC/C(=C1/c2ccccc2C(=O)N1c1ccccc1)c1ccc2[nH]ccc2c1`, the AC50 under setting [1] is 14.6 µM [falling, partial curve, poor fit].

Consider `COc1ccccc1N(CC(=O)Nc1ccc2c(c1)OCCO2)S(=O)(=O)c1ccc(C)cc1`, for which the AC50 under setting [1] is 25.1 µM [falling, partial curve, poor fit].

As for `CCOc1ccc(NC(=O)N[C@@H](CCSC)C(=O)OC)cc1`, the AC50 under setting [1] was 23.1 µM [rising, single point].

Consider `CCN(CC)S(=O)(=O)c1cccc(NC(=O)Nc2cccc(C(F)(F)F)c2)c1`, for which the AC50 under setting [1] was 8.2 µM [falling, partial curve, poor fit].

As to `Cc1ccc(CNC(=O)C2CCC(=O)N(CCCN3CCOCC3)C2)cc1` (stereo unspecified), under setting [1], the half-maximal activity concentration (AC50) was 12.6 µM [rising, partial curve].

In the case of `COc1ccc(S(=O)(=O)Cc2ccc(C(=O)NC3CCCC3)o2)cc1`, under setting [1], the AC50 is 2.91 µM [rising, single point].

Consider `Cc1nc(N2CCOCC2)nc(Oc2ccccc2F)c1[N+](=O)[O-]`, for which the AC50 under setting [1] is 31.6 µM [falling, single point].

As to `Cc1cc(C)nc(N(C#N)CC(=O)N2CCC(C(N)=O)CC2)n1`, the AC50 under setting [1] is 29.1 µM [rising, single point].

Take `COC(=O)c1c(C)n(-c2ccc(OC)cc2)c2ccc(O)cc12`: the AC50 under setting [1] was 29.1 µM [falling, single point].

For `CN1CCN(CCCC(=O)c2ccc(C3CCCC3)cc2)CC1`, the AC50 under setting [1] is 2.59 µM [rising, partial curve, poor fit].

`CCOc1ccc(-c2nnc(SCC(=O)Nc3ccc4c(c3)c3ccccc3n4CC)n2N)cc1`: the AC50 under setting [1] was 3.16 µM [rising, full curve].

Turning to `COc1ccc(N2COC3c4cccc5cccc(c45)C32)cc1` (stereo unspecified), the AC50 under setting [1] was 2.91 µM [falling, partial curve].

As to `COc1ccc(CC(=O)OCn2nnc3ccccc3c2=O)cc1`, the AC50 under setting [1] was 20.6 µM [falling, single point].

Consider `Cc1cccc2cc(CN(CCCO)C(=O)Nc3ccccc3Cl)c(=O)[nH]c12`, for which the AC50 under setting [1] was 25.9 µM [falling, single point].

Regarding `Cc1ccc(Nc2nc3ccccc3n3cnnc23)cc1Cl`, the AC50 under setting [1] is 0.562 µM [rising, full curve, poor fit].

Turning to `CCN1CCN(Cc2ccc(NC(=O)c3ccc(C)c(NC(=O)c4ccnnc4)c3)cc2C(F)(F)F)CC1`, under setting [1], the AC50 was 11.2 µM [falling, partial curve, poor fit].

Consider `COc1cc(/C=C2\SC(=S)N(CC(=O)Nc3cccnc3)C2=O)cc(OC)c1OC`, for which the AC50 under setting [1] was 0.82 µM [rising, partial curve].

For `Fc1ccc2[nH]c3c(N4CCc5ccccc5C4)ncnc3c2c1`, the half-maximal activity concentration (AC50) by setting is: under setting [1], 11.2 µM [falling, partial curve, poor fit]; (measured here: IkBa-CBG green luminescence) 12.6 µM [rising, single point].

For the compound `CCC(=O)c1ccc(OCc2ccc(C#N)cc2)cc1`, the AC50 under setting [1] was 6.31 µM [rising, full curve].

On to `COc1ccc(NC(=O)CCCN2C(=O)/C(=C\c3ccco3)SC2=S)cc1`, for which, under setting [1], the AC50 was 29.1 µM [falling, partial curve, poor fit].

`COc1ccc(NC(=O)c2cc([N+](=O)[O-])ccc2N2CCN(C)CC2)cc1`: under setting [1], the AC50 is 15.8 µM [falling, partial curve, poor fit].

With `CC(=O)NC(c1ccco1)c1cc(F)c2cccnc2c1O` (stereo unspecified), the AC50 under setting [1] is 11.6 µM [falling, partial curve] and 25.9 µM [falling, single point].

`Cc1ccnc2nc(C(=O)Nc3nnc(CC(C)C)s3)nn12`: the AC50 under setting [1] was 20.6 µM [falling, single point].

With `COc1ccccc1-c1sc2ccccc2c1-c1ccc(OCCN2CCCCC2)cc1`, the AC50 under setting [1] is 16.4 µM [falling, partial curve, poor fit].

Regarding `O=C(O)c1cccc(NC(=S)NC(NC(=O)c2ccco2)C(Cl)(Cl)Cl)c1` (stereo unspecified), the AC50 under setting [1] was 35.5 µM [rising, single point].

For the compound `CS(=O)(=O)c1ccc2nc(NC(=O)c3ccccc3Cl)sc2c1`, the AC50 under setting [1] was 11.2 µM [falling, partial curve].

For the compound `COc1ccc(/C=N/NC2=NCCCCC2)c(OC)c1`, the AC50 under setting [1] is 10 µM [falling, partial curve, poor fit].

For `COc1ccc(NC(=O)C2CCC(CNS(=O)(=O)c3csc(C(N)=O)c3)CC2)cc1OC` (stereo unspecified), the AC50 under setting [1] is 35.5 µM [rising, single point].

On to `O=C(Nc1nc2c(Cl)cccc2s1)c1ccc([N+](=O)[O-])o1`, for which the concentration at half-maximal activity (AC50) under setting [1] was 2.82 µM [falling, full curve, poor fit].

As for `c1cc2c(cc1-c1csc(NNC3=NCCCCC3)n1)OCCO2`, the AC50 under setting [1] was 35.5 µM [falling, single point].

Consider `O=C(c1cc(COc2ccc(F)cc2Cl)on1)N(CCO)Cc1cccs1`, for which, under setting [1], the AC50 was 35.5 µM [falling, single point].

Take `O=c1[nH]c(SCc2ccccc2)nc2ccsc12`: the AC50 under setting [1] is 35.5 µM [falling, single point].

As to `O=c1oc2ccccc2c(NC2CCCCC2)c1NS(=O)(=O)c1ccc(F)c(Cl)c1`, the AC50 under setting [1] was 15.8 µM [falling, single point].

As to `O=C(NN=C1CCC(=NNC(=O)c2cccnc2)CC1)c1cccnc1`, under setting [1], the AC50 was 2.51 µM [falling, full curve].

In the case of `S=c1[nH]nc(-c2cc(-c3ccccc3)n[nH]2)n1/N=C/c1ccc(Cl)c(Cl)c1`, under setting [1], the half-maximal activity concentration (AC50) was 7.08 µM [rising, full curve, poor fit].

As to `O=C(Nc1sc2c(c1C(=O)O)CCCCC2)c1cccnc1`, the half-maximal activity concentration (AC50) under setting [1] was 0.708 µM [falling, full curve, poor fit].

`O=C1CN(C(=O)c2cccc(Br)c2)C(c2ccccc2)c2cc(Cl)ccc2N1` (stereo unspecified): the AC50 under setting [1] was 11.2 µM [falling, partial curve, poor fit].

As to `Cc1[nH]c(-c2ccccn2)nc(=S)c1Cl`, under setting [1], the AC50 was 35.5 µM [rising, single point].

Turning to `COc1ccc(CN(C)S(=O)(=O)c2nnc(NC(=O)c3ccccc3OC)s2)cc1OC`, under setting [1], the AC50 was 12.6 µM [rising, single point].

In the case of `COc1ccc(/C=C(/NC(=O)c2ccccc2)C(=O)N2CCCCC2)cc1OC`, the AC50 under setting [1] is 5.62 µM [rising, single point].

Usually AC50 stands for the midpoint of the concentration-response curve, whichever way the signal moves.
